{"source": "PubChem BioAssay (Tox21)", "note": "This list was built around the results that the source calls inconclusive (neither active nor inactive); the mix of calls is not that of the screen. Where the call is inconclusive, the potency comes from a doubtful curve fit. Activity calls are given as the source filed them. Calls follow the shape of the full dose curve. % is scaled to controls: 0 for no effect and ±100 for the full control effect; potency is read from the fitted curve at half-maximal effect."}
{"molecular_target": "Beta-2 adrenergic receptor (Homo sapiens) (UniProt P07550)", "test": "Adrenergic beta2 receptor (ADRB2) small molecule agonists, cell-based qHTS assay (AID 1963593);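 as to activation: CHO cells stably overexpressing human ADRB2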", "conditions": "CHO-ADRB2 cells, cAMP HTRF, 30 min; activation: at 92.4 µM (top of the series) unless noted", "summary_of_the_method": "(§1)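 CHO cells stably over-expressing ADRB2 were plated overnight at 37C, then dosed with compounds plus a stimulation mix containing 100uM IBMX and 25uM Ro-20-1724 for 0.5hr at room temperature. cAMP was measured by HTRF competition, 1hr.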"}
{"smiles": "CCOC(=O)[C@H](C)O", "activation": "inconclusive: -5.89%"}
{"smiles": "Cc1nnc(NS(=O)(=O)c2ccc(N)cc2)s1", "Potency": "inconclusive: 543 nM [inhibitor, single point] and inactive"}
{"smiles": "CCCCCOC(=O)CCC", "activation": "inconclusive: -0.334%"}
{"smiles": "Cc1cccc(C)c1C", "activation": "inconclusive: 9.46%"}
{"smiles": "CCCCCCCCCCCCS", "activation": "inconclusive: 37.4%"}
{"smiles": "CC(=O)SC[C@@H](C)C(=O)N1CCC[C@H]1C(=O)N[C@@H](Cc1ccccc1)C(=O)O", "activation": "inconclusive: -5.83% [at 42.5 µM]"}
{"smiles": "CC(=O)c1ccc2c(c1)CCCC2", "activation": "inactive: 9.09%"}
{"smiles": "CCCCCC1CCC(=O)O1", "note": "(centres undefined)", "activation": "inconclusive: 0.625%"}
{"smiles": "CC1=NN(c2cc(S(=O)(=O)O)ccc2Cl)C(=O)C1N=Nc1ccccc1", "note": "(centres undefined)", "activation": "inactive: -25.5%"}
{"smiles": "NCCCCCC(=O)O", "Potency": "inconclusive: 0.237 µM [inhibitor, single point]"}
{"smiles": "CCN(CC)c1ccc(C=O)cc1", "activation": "inconclusive: -48.4%"}
{"smiles": "Cc1ccc(N)c(S(=O)(=O)O)c1", "activation": "inconclusive: -7.47%", "Potency": "inconclusive: 0.779 µM [inhibitor]"}
{"smiles": "CC(COCCO)OCCO", "note": "(centres undefined)", "activation": "inconclusive: 4.65%"}
{"smiles": "C=C(C)C(=O)OCCCCCCCC(C)C", "Potency": "inconclusive: 13.8 µM [inhibitor, single point]"}
{"smiles": "CC(C)(N)C#N", "activation": "inconclusive: -8.11%"}
{"smiles": "CN1C(=O)CC[C@H]1c1cccnc1", "activation": "inconclusive: -2.48%"}
{"smiles": "O=c1oc(=O)c2cc3c(=O)oc(=O)c3cc12", "Potency": "inconclusive: 0.769 µM [inhibitor, partial curve, poor fit]", "activation": "inconclusive: 8.6%"}
{"smiles": "CC1OCCC1=O", "note": "(centres undefined)", "activation": "inconclusive: 11.4%"}
{"smiles": "CC(C)c1cccc(O)c1", "activation": "inactive: -0.968%"}
{"smiles": "Cc1ccc(N(CCO)CCO)cc1", "activation": "inconclusive: -59.7%"}
{"smiles": "COC(CC(C)CCCC(C)(C)O)OC", "note": "(centres undefined)", "activation": "inconclusive: -25.1%"}
{"smiles": "CCOC(=O)C(F)(F)F", "activation": "inactive: 4.67%"}
{"smiles": "CC(C)(C)c1ccc(N)cc1", "activation": "inactive: 13.6%"}
{"smiles": "CC1=CC2C3CC(C=C3C)C2C1", "note": "(centres undefined)", "activation": "inconclusive: 0.242%", "Potency": "inconclusive: 2.64 µM [inhibitor, single point]"}
{"smiles": "N[C@@H](Cc1cc(I)c(Oc2cc(I)c(O)c(I)c2)c(I)c1)C(=O)O", "activation": "inconclusive: -39.7% [at 42.5 µM]"}
{"smiles": "CC(=O)c1ccccn1", "Potency": "inconclusive: 2.73 µM [inhibitor, single point]", "activation": "inconclusive: -1.63%"}
{"smiles": "COC(=O)c1ccccc1", "activation": "inconclusive: 14.3%"}
{"smiles": "NC(=O)c1ccncc1", "Potency": "inconclusive: 1.43 µM [inhibitor, single point]"}
{"smiles": "CC(C)CC(=O)OCc1ccccc1", "Potency": "inconclusive: 2.43 µM [inhibitor, single point]"}
{"smiles": "C=CCc1cc(OC)c(O)c(C(=O)NCCO)c1", "activation": "inactive: 0.184% [at 42.5 µM]"}
{"smiles": "O=C=NCCCCCCN=C=O", "Potency": "inconclusive: 15 µM [inhibitor, partial curve]"}
{"smiles": "CC(=O)Oc1cccc(O)c1", "activation": "inconclusive: 9.14% [at 42.5 µM]"}
{"smiles": "COc1ccc(NS(=O)(=O)c2ccc(N)cc2)nn1", "activation": "inconclusive: 4.94% [at 42.5 µM]"}
{"smiles": "CC(=O)Nc1ccc2c(c1)Cc1cc(NC(C)=O)ccc1-2", "activation": "inconclusive: -71.4%"}
{"smiles": "Cc1ccc(C(=O)O)o1", "activation": "inconclusive: -2.02%"}
{"smiles": "Brc1nc2ccccc2s1", "activation": "inconclusive: -32.9%"}
{"smiles": "O=Cc1ccccc1O", "activation": "inconclusive: 2.81%"}
{"smiles": "C[N+](C)(CCOc1ccccc1)Cc1cccs1", "activation": "inactive: 20.5% [at 42.5 µM]"}
{"molecular_target": "Beta-2 adrenergic receptor (Homo sapiens) (UniProt P07550)", "test": "Adrenergic beta2 receptor (ADRB2) small molecule agonists, cell-based qHTS assay (AID 1963593);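 as to activation: CHO cells stably overexpressing human ADRB2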", "conditions": "CHO-ADRB2 cells, cAMP HTRF, 30 min; at 42.5 µM (top of the series)", "summary_of_the_method": "as §1"}
{"smiles": "O=C(/C=C/c1ccccc1)OCc1ccccc1", "activation": "inconclusive: 14.8%"}
{"smiles": "CN1C(=O)CC[C@H]1c1cccnc1", "activation": "inactive: -18.4%"}
{"smiles": "OC[C@@H](O)[C@@H](O[C@@H]1O[C@H](CO)[C@H](O)[C@H](O)[C@H]1O)[C@H](O)[C@@H](O)CO", "activation": "inconclusive: 16.7%"}
{"smiles": "N[C@@H](Cc1cc(I)c(Oc2cc(I)c(O)c(I)c2)c(I)c1)C(=O)O", "activation": "inactive: 7.42%"}
{"molecular_target": "Beta-2 adrenergic receptor (Homo sapiens) (UniProt P07550)", "test": "Adrenergic beta2 receptor (ADRB2) small molecule agonists, cell-based qHTS assay (AID 1963593);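 as to activation: CHO cells stably overexpressing human ADRB2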", "conditions": "CHO-ADRB2 cells, cAMP HTRF, 30 min; at 92.4 µM (top of the series)", "summary_of_the_method": "as §1"}
{"smiles": "O=C(/C=C/c1ccccc1)OCc1ccccc1", "activation": "inconclusive: 21.3%"}
{"smiles": "CCCCCCCCCCCCS", "activation": "inactive: 3.58%"}
{"smiles": "OC[C@@H](O)[C@@H](O[C@@H]1O[C@H](CO)[C@H](O)[C@H](O)[C@H]1O)[C@H](O)[C@@H](O)CO", "activation": "inconclusive: -5.31%"}
{"smiles": "COC(=O)c1ccccc1", "activation": "inactive: -2.18%"}
{"smiles": "CC(=O)Nc1ccc2c(c1)Cc1cc(NC(C)=O)ccc1-2", "activation": "inactive: -4%"}
{"smiles": "Cc1ccc(C(=O)O)o1", "activation": "inactive: 1.22%"}
{"smiles": "Brc1nc2ccccc2s1", "activation": "inactive: -9.78%"}
{"smiles": "O=Cc1ccccc1O", "activation": "inactive: -12.7%"}
